This is one part of the list. The main result of the screen is listed elsewhere. These columns were measured beside it and carry no call. Most of these compounds were active or inconclusive in the main read-out, so they are no random draw. Potencies come from curve fits of mixed quality, noted in brackets.
Assay: qHTS Assay for Lipid Storage Modulators in Drosophila S3 Cells;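 as to cell number change: cells counted by Cell Tracker Red CMTPX staining in the red channel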
Settings: BODIPY lipid droplet fluorescence, 18-24 h; for cell number change: measured here: cell count max response, cells fed with added oleic acid
Summary of the method: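 Drosophila S3 cells got compounds at several concentrations plus oleic acid (400 uM solution). Laser-scanning cytometry with 488 nm excitation read lipid droplets at 500-530 nm and cells at 575-640 nm. Percent activity was relative to 20 uM Triacsin C.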

[1] = measured here: cell number channel AC50, cells fed with added oleic acid
[2] = measured here: lipid fluorescence (Fed channel) AC50, cells fed with added oleic acid

| Compound | cell number change | AC50 [1] | AC50 [2] |
| --- | --- | --- | --- |
| CCCNC(=O)COc1ccc2c(=O)c(Oc3ccccc3F)coc2c1 | 30.4% | 1.3 µM [rising, partial curve] |  |
| Cc1cccn2c(=O)c3cc(C(=O)NC4CCCC4)c(=N)n(CCCN4CCOCC4)c3nc12 | 3.91% |  | 29.1 µM [falling, single point] |
| Cc1cc2c(=O)n(CC(=O)NCC(=O)N3CCN(Cc4ccccc4)CC3)cnc2s1 |  |  | 0.13 µM [falling, full curve] |
| COC(=O)c1nnn(CC(=O)Nc2cc(Cl)ccc2C)c1C(=O)OC | -1.07% |  | 23.1 µM [rising, single point] |
| CCOc1ccc(NC(=O)CN2CCc3ccccc3C2)cc1 | -3.3% |  | 1.16 µM [rising, full curve] |
| O=c1oc2ccccc2nc1/C=C(O)/C=C/c1ccc(F)cc1 | 12.1% |  | 0.58 µM [rising, partial curve, poor fit] |
| CC(C)C(=O)Nc1cccc(C(=O)NCc2ccc(S(N)(=O)=O)cc2)c1 | -49.4% | 29.1 µM [falling, single point] | 29.1 µM [falling, single point] |
| COC(=O)c1sc(C(F)(F)F)c(-c2ccccc2)c1S(=O)(=O)N(C)C | -23.9% |  | 16.4 µM [falling, single point] |
| CC(=NC1CCN(Cc2ccccc2)CC1)c1c(O)[nH]c(=O)[nH]c1=O | -3.15% |  | 3.26 µM [falling, single point] |
| Cc1cc(C)n2cc(CSc3nnc(N)s3)nc2n1 | 79.8% | 23.1 µM [rising, partial curve] | 14.6 µM [rising, partial curve] |
| CCOc1ccccc1C1C(C#N)=C(N)Oc2cc(N)ccc21 (stereo not given) | 25.5% | 0.164 µM [rising, full curve] | 0.13 µM [rising, full curve, poor fit] |
| COC(=O)c1sc2nc(C)nc(SCC(=O)N3CCC(C(=O)O)CC3)c2c1C | 92.6% | 29.1 µM [rising, single point] | 29.1 µM [rising, single point] |
| O=C(CSc1ncn[nH]1)Nc1ccc(S(=O)(=O)N2CCCC2)cc1 | 40.4% | 18.4 µM [rising, single point] |  |
| CC(NC(=O)C(NS(=O)(=O)c1cccc2nsnc12)C(C)C)c1ccccc1 (stereo not given) | -3.89% |  | 0.517 µM [rising, single point] |
| CCN(C(=O)CN1C(=O)COc2ccc(S(=O)(=O)N3CCCCCC3)cc21)c1cccc(C)c1 | 19.1% |  | 16.4 µM [falling, partial curve] |
| COc1ccccc1C(=O)NCC(=O)OCC(=O)N(CC(C)C)c1c(N)n(Cc2ccccc2)c(=O)[nH]c1=O | -6.83% |  | 6.51 µM [falling, partial curve, poor fit] |
| COC(=O)COc1ccc(S(=O)(=O)N2CCOCC2)cc1 | 0.527% |  | 6.51 µM [falling, single point] |
| CCC(c1nnnn1Cc1ccc2c(c1)OCO2)N1CCN(c2ccccc2)CC1 (stereo not given) | -33% | 6.51 µM [falling, partial curve, poor fit] |  |
| Cc1ncsc1CCC(=O)N1CCCC(Nc2ccc(F)c(F)c2)C1 (stereo not given) | 14.2% |  | 2.91 µM [rising, full curve] |

3 of the compounds above, with tabs.
Compound	cell number change	AC50 [1]	AC50 [2]
COC(=O)c1sc(C(F)(F)F)c(-c2ccccc2)c1S(=O)(=O)N(C)C	-23.9%		16.4 µM [falling, single point]
CC(=NC1CCN(Cc2ccccc2)CC1)c1c(O)[nH]c(=O)[nH]c1=O	-3.15%		3.26 µM [falling, single point]
Cc1cc(C)n2cc(CSc3nnc(N)s3)nc2n1	79.8%	23.1 µM [rising, partial curve]	14.6 µM [rising, partial curve]

Following part.

| Compound | cell number change | AC50 [1] | AC50 [2] |
| --- | --- | --- | --- |
| COc1cccc(OC)c1C(=O)N1CCN(Cc2cccnc2)CC1 | 20.2% |  | 1.84 µM [rising, partial curve, poor fit] |
| O=C(NCc1cccs1)c1cnc2sccn2c1=O | 16.6% | 0.517 µM [rising, partial curve] | 16.4 µM [rising, single point] |
| COc1ccc(C2=NCCn3cccc32)c(OC)c1 | 0.344% |  | 32.6 µM [falling, single point] |
| O=Nc1c2nc3ccccc3n(O)c-2c2ccccc12 | -33.5% | 14.6 µM [falling, partial curve, poor fit] | 18.4 µM [falling, partial curve, poor fit] |
| CCOCCCNc1nc(-c2ccccc2)nc2ccccc12 |  |  | 3.66 µM [falling, full curve] |
| Clc1ccc(-n2cnnn2)cc1 | -75.8% | 23.1 µM [falling, partial curve, poor fit] | 23.1 µM [falling, partial curve] |
| O=C(CCC1CCCN(Cc2cccc(Cl)c2)C1)NCc1ccccc1F (stereo not given) | 11.5% |  | 29.1 µM [rising, single point] |
| COc1ccc(CNC(=O)OCc2nccnc2C(=O)Nc2ccc(Br)cn2)cc1 | -10.5% |  | 1.16 µM [rising, full curve] |
| Cn1nccc1C(=O)NC(=S)Nc1cc(Cl)cc(Cl)c1 | 21.8% |  |  |
| COc1ccc2c(c1)c(=O)cc(C)n2CC(=O)NCc1ccco1 | 1.79% |  |  |
| COc1ccc(C(CNC(=O)c2ccc(NS(=O)(=O)c3ccccc3)cc2)N2CCOCC2)cc1 (stereo not given) | -36.1% | 23.1 µM [falling, single point] |  |
| Cc1ccc(N(C(C)C(=O)Nc2ccc(S(=O)(=O)N3CCOCC3)cc2)S(C)(=O)=O)cc1C (stereo not given) | -12.5% | 0.13 µM [falling, partial curve, poor fit] | 13 µM [falling, single point] |
| CS(=O)(=O)N1CCN(c2ccc(NC(=O)c3ccc(-c4ccc(Cl)cc4)o3)cc2)CC1 | -32.9% | 20.6 µM [falling, single point] | 14.6 µM [falling, single point] |
| O=C(O)c1[nH]c2ccccc2c1-c1ccccc1 | -31.3% | 5.8 µM [falling, full curve, poor fit] |  |
| O=C(CN1CCN(c2ccc(F)cc2)CC1)N1CCC(Cc2ccccc2)CC1 | -0.429% |  | 6.51 µM [falling, single point] |
| Cc1ccn(S(=O)(=O)c2ccc(C(C)(C)C)cc2)n1 | -13.4% |  | 25.9 µM [rising, single point] |
| CC(=O)Nc1ccc(NC(=O)CN(C)S(=O)(=O)c2ccc3ccccc3c2)cc1 | 3.78% |  | 16.4 µM [rising, single point] |
| COc1ccc(NC(=S)NC(=O)Cc2ccccc2)cc1 | 6.93% | 1.84 µM [rising, partial curve] | 6.51 µM [rising, single point] |
| CC(C)(CNC(=O)c1ccc(-c2ccccc2Cl)o1)N1CCOCC1 |  |  | 2.06 µM [rising, partial curve] |

Ordered by length of the SMILES (largest number first): some entries from above

| Compound | cell number change | AC50 [1] | AC50 [2] |
| --- | --- | --- | --- |
| CC(C)C(=O)Nc1cccc(C(=O)NCc2ccc(S(N)(=O)=O)cc2)c1 | -49.4% | 29.1 µM [falling, single point] | 29.1 µM [falling, single point] |
| O=C(CN1CCN(c2ccc(F)cc2)CC1)N1CCC(Cc2ccccc2)CC1 | -0.429% |  | 6.51 µM [falling, single point] |
| Cc1ncsc1CCC(=O)N1CCCC(Nc2ccc(F)c(F)c2)C1 (stereo not given) | 14.2% |  | 2.91 µM [rising, full curve] |

More results

| Compound | cell number change | AC50 [1] | AC50 [2] |
| --- | --- | --- | --- |
| Cc1cc(Cl)cc(Cl)c1OCC(=O)NCc1ccco1 | -13% |  | 29.1 µM [rising, partial curve, poor fit] |
| CCCNS(=O)(=O)c1ccc(CCC(=O)NCc2ccc3c(c2)OCO3)cc1 | 13.4% |  |  |
| Cn1c(SCC(=O)NCc2ccco2)nnc1-c1cccs1 | 5.33% |  |  |
| COc1ccc(Nc2nnc(SCc3cn4c(C)cccc4n3)s2)cc1 | 12.9% |  | 0.259 µM [rising, full curve] |
| O=C(O)CSCC(=O)N1CCN(S(=O)(=O)c2ccccc2)CC1 | 0.622% | 0.82 µM [falling, partial curve] | 6.51 µM [falling, partial curve, poor fit] |
| COc1ccc(S(=O)(=O)N(CCC(=O)O)Cc2ccccc2)cc1 | -16.2% | 0.259 µM [falling, full curve, poor fit] | 1.64 µM [falling, partial curve] |
| CC(C)OCCOc1ccc2oc(-c3ccco3)cc(=O)c2c1 | -4.91% |  | 29.1 µM [falling, single point] |
| O=C(CN1CCN(Cc2ccccc2)C1=O)NCCCN1CCOCC1 | 2.64% |  | 6.51 µM [falling, single point] |
| Cc1ccc(OCC(=O)Nc2cccnc2Cl)cc1C | -25% |  |  |
| O=C(CSc1nnc(C2CC2)n1CC1CCCO1)Nc1ccc(Cl)cc1 (stereo not given) | -23% |  | 0.731 µM [rising, full curve, poor fit] |
| O=C(Nc1cnc2ccccc2c1)c1cccc(-n2cnnn2)c1 | 32.8% | 23.1 µM [rising, single point] | 29.1 µM [rising, single point] |
| COC(=O)CSc1nnc(-c2sc3cc(OC)ccc3c2Cl)n1C | -10.4% |  | 20.6 µM [falling, single point] |
| COc1ccc(OC)c(NC(=O)C2CCN(c3cc(-c4ccccc4)nc4ncnn34)CC2)c1 |  | 3.26 µM [rising, partial curve] | 2.59 µM [rising, partial curve] |
| CCCCC(=O)Nc1ccc(C(=O)Nc2ccc3c(c2)OCO3)cc1 | 2.77% |  | 0.058 µM [rising, full curve, poor fit] |
| CC(C)(C)c1ccc(S(=O)(=O)NCCOCC(F)(F)C(F)F)cc1 | -50.5% | 20.6 µM [falling, single point] |  |
| Cn1nc(C(=O)NNc2c(F)c(F)cc(F)c2F)c2ccccc2c1=O | -6.35% | 2.91 µM [rising, single point] |  |
| O=C(COC(=O)c1ccc([N+](=O)[O-])s1)NCc1ccc(F)cc1 | -22.1% |  | 7.31 µM [falling, partial curve, poor fit] |
| Cc1cccn2c(=O)c3cc(C(=O)NCc4ccco4)c(=N)n(C(C)C)c3nc12 | -19.4% |  | 1.64 µM [rising, full curve] |
| CNc1cc(CSc2ccc(Cl)cc2)nc(C)n1 | -49.4% | 1.46 µM [falling, single point] | 29.1 µM [falling, partial curve, poor fit] |

Reference: PubChem BioAssay AID2685 (National Center for Advancing Translational Sciences (NCATS), 2010)
